Results are given in words; binding and its absence hold for the method and conditions named. Binding seen in cells or lysates may run through a third protein. Some entries that bind do so weakly or less than the wild type.
Assays:
[1] = molecular target: c-met receptor tyrosine kinase (human (endogenous in SRB12-p9)) (UniProt P08581); experiment: co-IP; reciprocal immunoprecipitation with total c-met and total Stat3 antibodies from lysates (500 μg, 1% NP-40 in PBS) of WT and DN2 SRB12-p9 cells, serum-starved overnight, untreated or treated with 100 ng/ml HGF for 30 minutes; 4°C overnight; Western blot with the reciprocal antibody; rabbit IgG control
[2] = molecular target: Stat3 (human (endogenous in SRB12-p9)) (UniProt P40763); experiment: as above

Sequences of proteins named here, by UniProt entry; tags and fusion partners are left off. Residues count along the entry.
UniProt P08581, residues 25-1390: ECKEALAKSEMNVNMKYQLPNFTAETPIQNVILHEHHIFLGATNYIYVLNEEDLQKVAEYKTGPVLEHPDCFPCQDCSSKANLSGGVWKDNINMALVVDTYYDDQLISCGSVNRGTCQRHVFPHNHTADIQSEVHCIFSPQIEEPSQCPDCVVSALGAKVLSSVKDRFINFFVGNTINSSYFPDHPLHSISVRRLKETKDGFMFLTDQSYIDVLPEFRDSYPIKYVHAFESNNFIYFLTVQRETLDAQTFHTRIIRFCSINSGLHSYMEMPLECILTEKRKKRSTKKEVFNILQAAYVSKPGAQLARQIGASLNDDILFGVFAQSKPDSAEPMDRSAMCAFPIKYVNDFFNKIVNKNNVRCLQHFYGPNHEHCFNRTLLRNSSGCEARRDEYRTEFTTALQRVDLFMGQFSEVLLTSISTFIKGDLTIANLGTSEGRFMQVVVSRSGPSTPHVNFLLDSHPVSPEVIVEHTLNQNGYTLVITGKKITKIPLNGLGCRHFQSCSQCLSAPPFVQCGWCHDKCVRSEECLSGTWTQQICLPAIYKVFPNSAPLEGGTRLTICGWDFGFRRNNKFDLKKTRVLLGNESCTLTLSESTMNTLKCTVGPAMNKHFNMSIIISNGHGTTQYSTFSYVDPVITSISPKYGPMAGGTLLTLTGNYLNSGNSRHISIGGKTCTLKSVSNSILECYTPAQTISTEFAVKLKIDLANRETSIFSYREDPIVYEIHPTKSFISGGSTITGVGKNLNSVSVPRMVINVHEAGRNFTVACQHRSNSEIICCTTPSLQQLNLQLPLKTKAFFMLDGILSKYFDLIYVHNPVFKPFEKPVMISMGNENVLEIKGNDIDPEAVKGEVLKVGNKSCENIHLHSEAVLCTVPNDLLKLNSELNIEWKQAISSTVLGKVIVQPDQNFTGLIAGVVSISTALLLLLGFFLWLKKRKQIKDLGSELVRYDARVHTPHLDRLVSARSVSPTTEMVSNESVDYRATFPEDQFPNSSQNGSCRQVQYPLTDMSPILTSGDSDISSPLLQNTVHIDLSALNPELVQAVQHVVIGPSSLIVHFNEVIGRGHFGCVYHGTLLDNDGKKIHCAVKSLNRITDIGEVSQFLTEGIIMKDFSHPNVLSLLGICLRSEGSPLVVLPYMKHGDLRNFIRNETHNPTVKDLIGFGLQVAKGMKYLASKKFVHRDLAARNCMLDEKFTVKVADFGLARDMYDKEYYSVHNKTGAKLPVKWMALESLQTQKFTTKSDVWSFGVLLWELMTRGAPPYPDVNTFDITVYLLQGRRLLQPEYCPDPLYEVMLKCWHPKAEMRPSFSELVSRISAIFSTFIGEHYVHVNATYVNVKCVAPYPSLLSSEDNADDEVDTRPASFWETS
UniProt P40763: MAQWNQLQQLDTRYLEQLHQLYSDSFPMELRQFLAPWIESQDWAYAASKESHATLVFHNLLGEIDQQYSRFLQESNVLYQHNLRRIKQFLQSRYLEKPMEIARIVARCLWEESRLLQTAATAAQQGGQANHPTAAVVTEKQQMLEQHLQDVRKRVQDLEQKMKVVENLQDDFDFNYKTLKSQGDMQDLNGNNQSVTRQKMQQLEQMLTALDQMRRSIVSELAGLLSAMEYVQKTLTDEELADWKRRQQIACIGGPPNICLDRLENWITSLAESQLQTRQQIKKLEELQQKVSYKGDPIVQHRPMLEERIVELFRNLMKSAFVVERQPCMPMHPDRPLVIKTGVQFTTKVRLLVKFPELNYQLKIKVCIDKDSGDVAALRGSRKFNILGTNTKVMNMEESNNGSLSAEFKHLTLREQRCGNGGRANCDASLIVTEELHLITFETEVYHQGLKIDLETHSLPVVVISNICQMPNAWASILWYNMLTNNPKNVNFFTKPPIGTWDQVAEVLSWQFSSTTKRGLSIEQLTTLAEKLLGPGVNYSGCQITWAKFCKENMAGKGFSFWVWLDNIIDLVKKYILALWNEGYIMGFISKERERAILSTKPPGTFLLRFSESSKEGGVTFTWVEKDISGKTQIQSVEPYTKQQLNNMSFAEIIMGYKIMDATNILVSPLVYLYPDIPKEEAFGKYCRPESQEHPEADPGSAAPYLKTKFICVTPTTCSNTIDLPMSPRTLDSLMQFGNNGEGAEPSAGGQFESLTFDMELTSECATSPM

Row | Substance | binding [1] | binding [2]
1 | Stat3 (from UniProt P40763 1-770) | binds | –
2 | c-met receptor tyrosine kinase (from UniProt P08581 25-1390) | – | binds

Source: publication PMC3112164
